Results: PMC3551969
Results are given in words; binding and its absence hold for the method and conditions named. Binding calls can cover weak binding; strength is not graded here.

Sequences of proteins named here, by UniProt entry; tags and fusion partners are left off.
UniProt P69968: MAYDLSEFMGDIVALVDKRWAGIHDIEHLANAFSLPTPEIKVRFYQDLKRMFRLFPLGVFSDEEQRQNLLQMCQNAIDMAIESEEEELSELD

Legend:
TyeA (Y. pestis) = TyeA (Y. pestis) (UniProt P69968); assay: two-hybrid
YpCD1.15c (Y. pestis) = molecular target: T1, YpCD1.15c (Y. pestis) (UniProt Q9RI22); assay: two-hybrid
T1 sequence: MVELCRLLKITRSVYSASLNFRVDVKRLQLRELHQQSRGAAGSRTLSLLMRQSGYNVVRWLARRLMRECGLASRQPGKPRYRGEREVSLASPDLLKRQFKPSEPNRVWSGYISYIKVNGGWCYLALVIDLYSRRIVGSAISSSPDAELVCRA

## YpCD1.16c (from UniProt Q7ARJ6)
TyeA (Y. pestis)
  binding: binds
YpCD1.15c (Y. pestis)
  binding: binds
